From the supplement of paper PMC12595434, “Development of retinoid nuclear receptor pathway antagonists through targeting aldehyde dehydrogenase 1A3” (iScience, 2025)
The list shows a part of the results. The data scatter; read single values as rough.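 Many melting curves are irregular; where none melted, Tm was taken as 64 °C.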

The chains behind the UniProt entries cited, without tags or fusion partners. Where a name states a change or a piece, a line headed by the entry shows the natural chain unless it says otherwise.
UniProt Q6IA69: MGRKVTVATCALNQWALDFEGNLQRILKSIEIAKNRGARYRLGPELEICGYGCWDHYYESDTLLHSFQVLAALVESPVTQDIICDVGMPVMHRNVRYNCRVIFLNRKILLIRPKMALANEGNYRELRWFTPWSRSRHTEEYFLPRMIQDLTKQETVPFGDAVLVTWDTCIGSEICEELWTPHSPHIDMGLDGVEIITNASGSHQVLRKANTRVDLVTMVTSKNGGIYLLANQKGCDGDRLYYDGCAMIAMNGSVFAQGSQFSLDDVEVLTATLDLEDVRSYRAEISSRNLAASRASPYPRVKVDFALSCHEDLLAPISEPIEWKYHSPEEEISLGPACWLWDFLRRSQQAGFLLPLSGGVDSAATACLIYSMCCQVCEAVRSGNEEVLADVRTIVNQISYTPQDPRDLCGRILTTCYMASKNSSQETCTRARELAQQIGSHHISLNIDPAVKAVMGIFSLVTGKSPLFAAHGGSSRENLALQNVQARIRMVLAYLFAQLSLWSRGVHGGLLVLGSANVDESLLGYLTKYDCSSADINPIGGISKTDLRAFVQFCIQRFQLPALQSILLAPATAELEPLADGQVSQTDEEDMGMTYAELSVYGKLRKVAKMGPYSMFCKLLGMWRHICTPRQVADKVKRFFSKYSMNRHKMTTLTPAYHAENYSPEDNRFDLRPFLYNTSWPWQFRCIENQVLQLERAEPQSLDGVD
UniProt Q5HYI7: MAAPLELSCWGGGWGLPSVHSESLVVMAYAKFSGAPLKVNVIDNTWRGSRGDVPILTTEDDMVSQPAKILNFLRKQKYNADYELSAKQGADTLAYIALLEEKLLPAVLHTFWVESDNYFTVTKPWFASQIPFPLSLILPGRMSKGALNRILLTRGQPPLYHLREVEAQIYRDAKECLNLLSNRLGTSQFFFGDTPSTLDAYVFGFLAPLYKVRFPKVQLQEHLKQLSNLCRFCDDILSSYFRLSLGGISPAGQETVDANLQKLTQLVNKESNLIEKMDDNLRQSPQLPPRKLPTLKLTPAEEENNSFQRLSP
UniProt Q5TGY3: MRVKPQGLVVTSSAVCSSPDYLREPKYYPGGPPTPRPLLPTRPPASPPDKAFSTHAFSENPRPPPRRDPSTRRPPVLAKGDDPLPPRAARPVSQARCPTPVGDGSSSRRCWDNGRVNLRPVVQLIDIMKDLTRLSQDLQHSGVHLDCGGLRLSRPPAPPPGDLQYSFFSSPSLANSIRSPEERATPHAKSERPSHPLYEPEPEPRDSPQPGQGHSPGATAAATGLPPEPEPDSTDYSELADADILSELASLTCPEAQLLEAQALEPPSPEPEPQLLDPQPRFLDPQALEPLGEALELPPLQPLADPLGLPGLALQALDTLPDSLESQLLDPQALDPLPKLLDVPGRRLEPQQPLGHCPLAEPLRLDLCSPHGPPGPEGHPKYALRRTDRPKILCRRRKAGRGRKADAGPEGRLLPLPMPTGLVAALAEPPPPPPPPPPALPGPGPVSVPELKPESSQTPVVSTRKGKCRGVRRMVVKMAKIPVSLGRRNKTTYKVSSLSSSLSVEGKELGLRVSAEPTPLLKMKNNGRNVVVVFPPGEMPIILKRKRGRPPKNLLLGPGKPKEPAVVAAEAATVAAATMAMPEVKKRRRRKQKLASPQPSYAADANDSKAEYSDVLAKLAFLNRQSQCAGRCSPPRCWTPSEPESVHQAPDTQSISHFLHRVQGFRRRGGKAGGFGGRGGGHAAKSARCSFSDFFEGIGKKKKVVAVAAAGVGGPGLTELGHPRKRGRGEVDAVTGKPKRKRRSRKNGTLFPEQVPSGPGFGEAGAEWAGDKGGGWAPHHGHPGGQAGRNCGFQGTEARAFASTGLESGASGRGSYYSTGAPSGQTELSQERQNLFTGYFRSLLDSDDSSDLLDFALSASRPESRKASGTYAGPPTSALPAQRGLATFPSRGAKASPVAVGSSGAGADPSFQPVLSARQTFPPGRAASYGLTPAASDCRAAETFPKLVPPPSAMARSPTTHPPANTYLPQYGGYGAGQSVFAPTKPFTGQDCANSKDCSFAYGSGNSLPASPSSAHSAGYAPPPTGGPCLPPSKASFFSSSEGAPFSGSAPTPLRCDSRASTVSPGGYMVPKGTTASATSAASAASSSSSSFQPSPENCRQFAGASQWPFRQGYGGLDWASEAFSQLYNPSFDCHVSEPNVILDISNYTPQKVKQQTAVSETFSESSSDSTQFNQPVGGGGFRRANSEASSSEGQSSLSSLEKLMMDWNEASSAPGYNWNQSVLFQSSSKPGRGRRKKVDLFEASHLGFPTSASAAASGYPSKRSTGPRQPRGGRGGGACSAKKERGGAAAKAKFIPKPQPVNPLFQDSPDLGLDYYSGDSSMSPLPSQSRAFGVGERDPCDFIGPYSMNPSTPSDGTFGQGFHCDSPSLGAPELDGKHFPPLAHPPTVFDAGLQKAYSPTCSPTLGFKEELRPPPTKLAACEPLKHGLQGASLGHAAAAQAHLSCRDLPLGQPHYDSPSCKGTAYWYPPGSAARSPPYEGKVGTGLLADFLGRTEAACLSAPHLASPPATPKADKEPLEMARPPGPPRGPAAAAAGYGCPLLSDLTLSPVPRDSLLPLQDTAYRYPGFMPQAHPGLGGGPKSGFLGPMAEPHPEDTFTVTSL
UniProt Q5VW36: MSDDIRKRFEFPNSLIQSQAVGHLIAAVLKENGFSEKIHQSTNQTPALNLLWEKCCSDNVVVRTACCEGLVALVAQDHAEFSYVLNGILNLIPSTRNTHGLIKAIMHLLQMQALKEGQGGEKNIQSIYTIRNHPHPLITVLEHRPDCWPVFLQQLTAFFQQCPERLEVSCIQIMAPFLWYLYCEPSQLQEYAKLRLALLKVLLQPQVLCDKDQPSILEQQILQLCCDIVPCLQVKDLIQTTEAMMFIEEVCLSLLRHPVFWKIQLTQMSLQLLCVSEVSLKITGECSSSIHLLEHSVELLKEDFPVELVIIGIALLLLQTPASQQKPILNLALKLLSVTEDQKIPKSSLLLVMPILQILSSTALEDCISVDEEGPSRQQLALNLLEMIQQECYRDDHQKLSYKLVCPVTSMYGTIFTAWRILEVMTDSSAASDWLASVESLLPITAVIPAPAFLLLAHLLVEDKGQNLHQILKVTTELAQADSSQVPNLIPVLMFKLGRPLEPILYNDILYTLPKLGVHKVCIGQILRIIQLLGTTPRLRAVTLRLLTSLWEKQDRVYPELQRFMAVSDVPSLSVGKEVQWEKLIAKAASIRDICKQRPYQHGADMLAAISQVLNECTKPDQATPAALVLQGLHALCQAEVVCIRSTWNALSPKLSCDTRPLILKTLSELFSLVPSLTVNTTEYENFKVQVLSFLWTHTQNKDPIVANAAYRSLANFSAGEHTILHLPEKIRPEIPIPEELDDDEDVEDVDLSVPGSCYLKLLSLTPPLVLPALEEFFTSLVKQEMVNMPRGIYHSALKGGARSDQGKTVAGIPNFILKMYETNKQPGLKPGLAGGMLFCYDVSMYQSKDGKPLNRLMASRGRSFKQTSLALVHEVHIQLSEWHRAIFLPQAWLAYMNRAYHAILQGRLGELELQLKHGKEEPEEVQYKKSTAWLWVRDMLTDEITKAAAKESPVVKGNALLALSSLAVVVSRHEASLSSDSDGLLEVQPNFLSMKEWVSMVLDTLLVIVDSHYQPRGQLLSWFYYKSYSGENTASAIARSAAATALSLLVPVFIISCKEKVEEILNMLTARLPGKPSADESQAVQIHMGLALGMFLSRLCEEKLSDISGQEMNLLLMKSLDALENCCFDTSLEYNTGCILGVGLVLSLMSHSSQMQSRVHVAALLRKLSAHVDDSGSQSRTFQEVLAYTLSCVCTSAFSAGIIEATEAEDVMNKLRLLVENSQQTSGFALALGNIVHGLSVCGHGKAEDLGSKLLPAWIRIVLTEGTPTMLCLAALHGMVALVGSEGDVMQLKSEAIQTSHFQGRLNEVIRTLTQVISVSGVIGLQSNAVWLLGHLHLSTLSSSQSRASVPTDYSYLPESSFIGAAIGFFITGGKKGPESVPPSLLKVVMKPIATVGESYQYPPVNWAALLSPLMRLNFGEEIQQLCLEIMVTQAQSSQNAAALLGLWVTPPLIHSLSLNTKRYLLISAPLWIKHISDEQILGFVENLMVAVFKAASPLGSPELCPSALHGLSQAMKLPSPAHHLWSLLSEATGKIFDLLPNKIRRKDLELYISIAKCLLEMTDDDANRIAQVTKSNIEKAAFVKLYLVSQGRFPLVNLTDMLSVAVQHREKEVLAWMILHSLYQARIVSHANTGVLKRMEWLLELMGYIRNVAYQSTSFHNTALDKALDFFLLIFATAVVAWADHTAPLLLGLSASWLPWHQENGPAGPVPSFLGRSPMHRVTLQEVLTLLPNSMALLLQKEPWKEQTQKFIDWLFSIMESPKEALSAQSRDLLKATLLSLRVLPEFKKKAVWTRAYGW
UniProt Q5EBL8: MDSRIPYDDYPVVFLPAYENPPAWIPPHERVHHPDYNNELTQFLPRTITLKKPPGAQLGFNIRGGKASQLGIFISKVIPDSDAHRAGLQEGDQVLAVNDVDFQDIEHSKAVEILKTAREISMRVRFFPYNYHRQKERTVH
UniProt Q6GQQ9: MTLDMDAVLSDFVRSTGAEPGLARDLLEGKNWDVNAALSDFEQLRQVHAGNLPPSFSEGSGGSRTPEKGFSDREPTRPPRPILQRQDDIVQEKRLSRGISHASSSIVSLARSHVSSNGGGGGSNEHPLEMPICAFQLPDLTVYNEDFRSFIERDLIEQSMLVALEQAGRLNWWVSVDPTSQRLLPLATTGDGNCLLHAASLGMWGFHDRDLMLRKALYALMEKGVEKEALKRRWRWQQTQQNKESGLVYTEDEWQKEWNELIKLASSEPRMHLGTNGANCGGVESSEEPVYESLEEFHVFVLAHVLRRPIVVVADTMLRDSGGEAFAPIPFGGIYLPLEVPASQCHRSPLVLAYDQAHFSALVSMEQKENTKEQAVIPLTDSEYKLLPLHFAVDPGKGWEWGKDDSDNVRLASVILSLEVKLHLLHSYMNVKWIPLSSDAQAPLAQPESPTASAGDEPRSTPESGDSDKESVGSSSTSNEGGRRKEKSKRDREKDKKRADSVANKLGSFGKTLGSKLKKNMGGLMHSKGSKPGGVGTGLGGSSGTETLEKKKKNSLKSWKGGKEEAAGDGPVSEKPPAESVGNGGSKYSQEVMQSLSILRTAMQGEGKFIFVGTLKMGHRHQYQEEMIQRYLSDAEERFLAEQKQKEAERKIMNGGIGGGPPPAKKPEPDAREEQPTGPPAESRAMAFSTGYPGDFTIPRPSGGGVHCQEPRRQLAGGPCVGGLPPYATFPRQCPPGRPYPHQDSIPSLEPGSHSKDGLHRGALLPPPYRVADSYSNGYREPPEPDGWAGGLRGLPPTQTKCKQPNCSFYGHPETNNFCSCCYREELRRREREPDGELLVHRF
UniProt Q5VST6: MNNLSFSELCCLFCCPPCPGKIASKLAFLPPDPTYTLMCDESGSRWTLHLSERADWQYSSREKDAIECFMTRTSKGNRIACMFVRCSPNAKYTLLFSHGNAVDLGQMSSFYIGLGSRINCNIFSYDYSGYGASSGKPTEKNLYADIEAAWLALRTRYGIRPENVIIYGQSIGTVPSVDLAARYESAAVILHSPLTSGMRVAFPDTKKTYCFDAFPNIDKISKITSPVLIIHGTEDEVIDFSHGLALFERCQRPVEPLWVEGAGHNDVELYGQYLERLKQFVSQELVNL
UniProt Q5XKP0: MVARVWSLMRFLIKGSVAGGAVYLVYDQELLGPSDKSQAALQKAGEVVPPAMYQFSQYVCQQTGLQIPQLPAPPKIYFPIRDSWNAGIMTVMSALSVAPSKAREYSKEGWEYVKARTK
UniProt Q6P087: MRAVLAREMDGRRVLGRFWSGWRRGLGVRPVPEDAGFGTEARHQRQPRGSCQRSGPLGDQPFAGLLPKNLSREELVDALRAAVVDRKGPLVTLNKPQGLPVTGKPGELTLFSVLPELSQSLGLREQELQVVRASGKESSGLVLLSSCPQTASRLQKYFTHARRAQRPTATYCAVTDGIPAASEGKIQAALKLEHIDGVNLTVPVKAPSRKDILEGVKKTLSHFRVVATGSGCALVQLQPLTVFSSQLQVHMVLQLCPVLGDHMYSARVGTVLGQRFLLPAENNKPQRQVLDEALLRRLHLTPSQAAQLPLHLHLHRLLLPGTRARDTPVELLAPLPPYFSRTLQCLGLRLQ
UniProt Q5T6V5: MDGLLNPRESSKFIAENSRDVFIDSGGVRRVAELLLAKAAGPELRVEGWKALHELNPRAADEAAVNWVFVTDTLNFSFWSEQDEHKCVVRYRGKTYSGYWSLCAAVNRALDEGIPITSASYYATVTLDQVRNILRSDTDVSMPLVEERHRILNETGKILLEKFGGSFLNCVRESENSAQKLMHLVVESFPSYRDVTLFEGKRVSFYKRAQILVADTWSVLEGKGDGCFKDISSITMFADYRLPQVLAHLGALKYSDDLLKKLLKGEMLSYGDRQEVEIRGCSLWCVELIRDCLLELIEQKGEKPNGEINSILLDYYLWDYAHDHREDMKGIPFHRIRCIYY

compound: CCc1cnccc1C(=O)Nc1cc2c(cc1F)NC(=O)CC2; assay: melting temperature shift (DMSO Tm minus MBE1-treated Tm) in cellular thermal proteome profiling; higher = less thermal stabilization by MBE1 (negative = stabilized by MBE1); conditions: A375; MBE1 concentration: 100 nM

Target | melting temperature shift
NADSYN1 (UniProt Q6IA69) | -0.971 °C
PDSS1 (UniProt Q5T2R2) | 0.423 °C
LRRC8E (UniProt Q6NSJ5) | -1.13 °C
RIF1 (UniProt Q5UIP0) | -0.301 °C
ZNF787 (UniProt Q6DD87) | -3.87 °C
PIGG (UniProt Q5H8A4) | 0.134 °C
CAMSAP1 (UniProt Q5T5Y3) | -0.342 °C
CC2D1A (UniProt Q6P1N0) | -0.219 °C
TBC1D9B (UniProt Q66K14) | 0.385 °C
TOR1AIP1 (UniProt Q5JTV8) | -1.41 °C
PRPF38B (UniProt Q5VTL8) | 0.127 °C
MTX3 (UniProt Q5HYI7) | -0.601 °C
UniProt Q5TAQ9 | 0.488 °C
UniProt Q5TGY3 | -0.545 °C
UniProt Q6IQ23 | -0.55 °C
DHX57 (UniProt Q6P158) | -0.387 °C
LPCAT4 (UniProt Q643R3) | -0.649 °C
CEP78 (UniProt Q5JTW2) | -1.75 °C
FOCAD (UniProt Q5VW36) | -0.411 °C

Target | melting temperature shift
PDZD11 (UniProt Q5EBL8) | -1.99 °C
CEP85 (UniProt Q6P2H3) | -1.84 °C
RARS2 (UniProt Q5T160) | 0.513 °C
OTUD7B (UniProt Q6GQQ9) | -0.273 °C
UniProt Q5SY16 | 0.144 °C
SH3PXD2A (UniProt Q5TCZ1) | -2.01 °C
ABHD17B (UniProt Q5VST6) | -1.79 °C
LIN54 (UniProt Q6MZP7) | 0.577 °C
ZCCHC6 (UniProt Q5VYS8) | -1 °C
UniProt Q5XKP0 | -0.336 °C
LETMD1 (UniProt Q6P1Q0) | -0.624 °C
WLS (UniProt Q5T9L3) | 2.11 °C
NOMO2 (UniProt Q5JPE7) | 0.0671 °C
RPUSD3 (UniProt Q6P087) | 0.177 °C
HEATR6 (UniProt Q6AI08) | 0.983 °C
MAP1S (UniProt Q66K74) | 0.891 °C
DOCK11 (UniProt Q5JSL3) | 0.775 °C
C9ORF64 (UniProt Q5T6V5) | 0.305 °C
UniProt Q5C9Z4 | -0.48 °C

same assay, conditions: A375; MBE1 concentration: 1 uM

Target | melting temperature shift
NADSYN1 (UniProt Q6IA69) | -0.906 °C
PDSS1 (UniProt Q5T2R2) | 1 °C
LRRC8E (UniProt Q6NSJ5) | 1.2 °C
RIF1 (UniProt Q5UIP0) | -0.282 °C
ZNF787 (UniProt Q6DD87) | -3.15 °C
PIGG (UniProt Q5H8A4) | 1.1 °C
CAMSAP1 (UniProt Q5T5Y3) | -0.574 °C
CC2D1A (UniProt Q6P1N0) | -0.282 °C
TBC1D9B (UniProt Q66K14) | 0.0183 °C
TOR1AIP1 (UniProt Q5JTV8) | -0.604 °C
PRPF38B (UniProt Q5VTL8) | -1.41 °C
MTX3 (UniProt Q5HYI7) | 0.122 °C
UniProt Q5TAQ9 | -0.397 °C
UniProt Q5TGY3 | -0.66 °C
UniProt Q6IQ23 | 0.322 °C
DHX57 (UniProt Q6P158) | 0.385 °C
LPCAT4 (UniProt Q643R3) | -0.527 °C
CEP78 (UniProt Q5JTW2) | -1.84 °C
FOCAD (UniProt Q5VW36) | 0.421 °C

Target | melting temperature shift
PDZD11 (UniProt Q5EBL8) | -2.11 °C
CEP85 (UniProt Q6P2H3) | -1.38 °C
RARS2 (UniProt Q5T160) | 0.391 °C
OTUD7B (UniProt Q6GQQ9) | -0.24 °C
UniProt Q5SY16 | -0.138 °C
SH3PXD2A (UniProt Q5TCZ1) | 2.93 °C
ABHD17B (UniProt Q5VST6) | -2.35 °C
LIN54 (UniProt Q6MZP7) | -0.769 °C
ZCCHC6 (UniProt Q5VYS8) | -1.08 °C
UniProt Q5XKP0 | 2.32 °C
LETMD1 (UniProt Q6P1Q0) | 0.215 °C
WLS (UniProt Q5T9L3) | 1.88 °C
NOMO2 (UniProt Q5JPE7) | 1.19 °C
RPUSD3 (UniProt Q6P087) | 0.705 °C
HEATR6 (UniProt Q6AI08) | 0.818 °C
MAP1S (UniProt Q66K74) | -0.11 °C
DOCK11 (UniProt Q5JSL3) | 0.385 °C
C9ORF64 (UniProt Q5T6V5) | -0.513 °C
UniProt Q5C9Z4 | -0.301 °C
